Reference: PubChem BioAssay AID328 (DTP/NCI, 2004)
The list does not hold the whole screen: it gathers tests that were run many times, whatever their T/C, doses with no T/C, and many T/C values between a quarter and a half above the control. Other doses and runs of a compound stand elsewhere. T/C is the treated group as % of the vehicle group. Some doses have a count of surviving animals in place of a T/C: the source holds a T/C of zero for them, seemingly a mark for toxic or unscored doses. Some survivor counts are full or nearly so, which does not show that the dose was tolerated: survival well below the control is almost never listed, so the zero probably covers shortened survival too. Counts of survivors are from the toxicity check (mostly the fifth day) where no day follows; animals may have died later. Schedule codes are those of the source, read here as Q, the interval in days (D) or hours (H), X, the number of doses. Some entries hold several experiments; their values stand side by side, smallest first. For survival time, the PubChem record calls one and a half times the control and up active, and a quarter to a half above the control has no call in these data; cut-offs in other NCI protocols can differ. Some T/C values are followed by the survivors on the day toxicity was checked, most often the fifth; where none is given, no animal had died by that day.

Test system: BDF1 mice, P388 leukemia ip, median survival T/C
Test: NCI In Vivo Anticancer Drug Screen. Data for tumor model P388 Leukemia (intraperitoneal) in B6D2F1 (BDF1) mice
Conditions: T/C endpoint: median survival time, higher T/C = longer survival
Summary of the method: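 T/C = treated-group survival ÷ vehicle-control survival; tumour transplanted into mice before dosing.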

[1] = dose: 50.0 mg/kg/injection, schedule: Q01DX009 (ip), vehicle: saline with Tween-80
[2] = dose: 100.0 mg/kg/injection, schedule: Q01DX009 (ip), vehicle: saline with Tween-80
[3] = dose: 200.0 mg/kg/injection, schedule: Q01DX009 (ip), vehicle: saline with Tween-80
[4] = dose: 200.0 mg/kg/injection, schedule: Q01DX009 (ip), vehicle: saline
[5] = dose: 400.0 mg/kg/injection, schedule: Q04DX003 (ip), vehicle: Klucel (hydroxypropylcellulose) (HPC)
[6] = dose: 25.0 mg/kg/injection, schedule: Q01DX009 (ip), vehicle: saline

SMILES: Fc1ccc(NC(=S)SCc2ccc3c(c2)OCO3)cc1F
- T/C [1]: 126 % of control
- T/C [2]: 135 % of control
- T/C (dose: 200.0 mg/kg/injection, schedule: Q01DX009 (ip), vehicle: saline + alcohol): 125 % of control
- survivor count [3]: 0 of 6
- survivor count (dose: 400.0 mg/kg/injection, schedule: Q01DX009 (ip), vehicle: saline with Tween-80): 0 of 6 and 2 of 6

SMILES: COc1cc(N2CCOCC2)ccc1[N+](=O)[O-]
- survivor count (dose: 400.0 mg/kg/injection, schedule: Q01DX009 (ip), vehicle: saline): 0 of 6

SMILES: C/C=C/C(OCC)OCC
- T/C (dose: 400.0 mg/kg/injection, schedule: Q01DX009 (ip), vehicle: water): 127 % of control
- survivor count (dose: 400.0 mg/kg/injection, schedule: Q04DX003 (ip), vehicle: water): 1 of 6

SMILES: COc1cc(/C=N\O)nc(-c2ccccn2)c1
- survivor count [4]: 1 of 3

SMILES: C[n+]1c(-c2cc(N)cc(C(F)(F)F)c2)c2cc(N)ccc2c2ccc(N)cc21
- survivor count (dose: 50.0 mg/kg/injection, schedule: Q01DX009 (ip), vehicle: water): 5 of 5
- survivor count (dose: 100.0 mg/kg/injection, schedule: Q01DX009 (ip), vehicle: water): 0 of 5

SMILES: C[C@@H]1C[C@H]2C(=CC1=O)CC[C@@H]1[C@@H]2CC[C@@]2(C)[C@H]1CC[C@]2(C)O
- survivor count [5]: 1 of 6

SMILES: COc1cc(/C=N/NC(=O)COCC(=O)N/N=C/c2ccc(O)cc2OC)ccc1O
- survivor count (dose: 50.0 mg/kg/injection, schedule: Q01DX005 (ip), vehicle: saline with Tween-80): 4 of 5
- survivor count (dose: 100.0 mg/kg/injection, schedule: Q01DX005 (ip), vehicle: saline with Tween-80): 5 of 5

SMILES: COC(=O)/C=C/c1c[nH]c2nccnc12
- T/C (dose: 200.0 mg/kg/injection, schedule: Q01DX009 (ip), vehicle: water): 128 % of control

SMILES: CCOC(=O)Sc1ncnc2nc[nH]c12
- T/C [1]: 136 % of control [5 of 6 alive]

SMILES: Cc1cc(O)c2c(c1)C(=O)C=CC2=O
- T/C (dose: 0.36 mg/kg/injection, schedule: Q01DX009 (ip), vehicle: alcohol): 135 % of control
- T/C (dose: 0.82 mg/kg/injection, schedule: Q01DX009 (ip), vehicle: alcohol): 140 % of control
- T/C (dose: 1.25 mg/kg/injection, schedule: Q01DX009 (ip), vehicle: alcohol): 125 % of control
- survivor count (dose: 5.0 mg/kg/injection, schedule: Q01DX009 (ip), vehicle: alcohol): 3 of 6
- survivor count (dose: 10.0 mg/kg/injection, schedule: Q01DX009 (ip), vehicle: alcohol): 0 of 6

SMILES: C1CCc2nnnn2CC1
- survivor count (dose: 37.5 mg/kg/injection, schedule: Q04DX003 (ip), vehicle: saline): 6 of 6
- survivor count (dose: 50.0 mg/kg/injection, schedule: Q01DX009 (ip), vehicle: saline): 5 of 6
- survivor count (dose: 75.0 mg/kg/injection, schedule: Q04DX003 (ip), vehicle: saline): 0 of 6

SMILES: CCCCOCN1COCC1(C)C
- T/C (dose: 200.0 mg/kg/injection, schedule: Q04DX003 (ip), vehicle: saline): 140 % of control

SMILES: CC12OC1C(=O)c1ccccc1C2=O (stereo unspecified)
- survivor count (dose: 5.0 mg/kg/injection, schedule: Q01DX009 (ip), vehicle: Klucel (hydroxypropylcellulose) (HPC)): 6 of 6
- survivor count (dose: 10.0 mg/kg/injection, schedule: Q01DX009 (ip), vehicle: Klucel (hydroxypropylcellulose) (HPC)): 6 of 6
- survivor count (dose: 20.0 mg/kg/injection, schedule: Q04DX003 (ip), vehicle: Klucel (hydroxypropylcellulose) (HPC)): 4 of 6

SMILES: CCC1(O)CC(OC2CC(N(C)C)C(OC3CC(O)C(OC4CCC(=O)C(C)O4)C(C)O3)C(C)O2)c2c(cc3c(c2O)C(=O)c2c(O)ccc(O)c2C3=O)C1C(=O)OC (stereo unspecified)
- T/C (dose: 1.73 mg/kg/injection, schedule: Q04DX003 (ip), vehicle: water): 149 % of control
- survivor count (dose: 8.0 mg/kg/injection, schedule: Q04DX003 (ip), vehicle: water): 8 of 8

SMILES: O=[N+]([O-])/C=C\c1ccc2c(c1)OCO2
- T/C (dose: 25.0 mg/kg/injection, schedule: Q01DX009 (ip), vehicle: Klucel (hydroxypropylcellulose) (HPC)): 131 % of control
- T/C (dose: 50.0 mg/kg/injection, schedule: Q01DX009 (ip), vehicle: Klucel (hydroxypropylcellulose) (HPC)): 125, 127, 138 % of control
- survivor count (dose: 100.0 mg/kg/injection, schedule: Q01DX009 (ip), vehicle: Klucel (hydroxypropylcellulose) (HPC)): 5 of 6
- survivor count (dose: 200.0 mg/kg/injection, schedule: Q01DX009 (ip), vehicle: Klucel (hydroxypropylcellulose) (HPC)): 2 of 6
- survivor count (dose: 400.0 mg/kg/injection, schedule: Q01DX009 (ip), vehicle: Klucel (hydroxypropylcellulose) (HPC)): 0 of 6
- survivor count [5]: 1 of 6

SMILES: O=C1CN(CCl)C(=O)CN1CCl
- survivor count (dose: 12.5 mg/kg/injection, schedule: Q01DX009 (ip), vehicle: water): 6 of 6

SMILES: O=C1c2ccccc2C(=O)c2c(NCCCCCO)ccc(NCCCCCO)c21
- survivor count (dose: 50.0 mg/kg/injection, schedule: Q01DX009 (ip), vehicle: other): 6 of 6
- survivor count (dose: 200.0 mg/kg/injection, schedule: Q01DX009 (ip), vehicle: other): 6 of 6
- survivor count (dose: 400.0 mg/kg/injection, schedule: Q01DX009 (ip), vehicle: other): 5 of 6

SMILES: CCC1=C(c2cc(Cl)c3ccccc3c2OCC(=O)O)OC(CC)(C(=O)c2cc(Cl)c3ccccc3c2OCC(=O)O)CC1 (stereo unspecified)
- survivor count (dose: 100.0 mg/kg/injection, schedule: Q04DX003 (ip), vehicle: saline sonified): 6 of 6

SMILES: O=C(Nc1ccc(Cl)cc1C(=O)c1ccccn1)c1ccccc1
- T/C (dose: 100.0 mg/kg/injection, schedule: Q04DX003 (ip), vehicle: saline with Tween-80): 130 % of control

SMILES: N#Cc1cnc2nc1NCCCCCCC2
- survivor count (dose: 200.0 mg/kg/injection, schedule: Q04DX003 (ip), vehicle: saline with Tween-80): 5 of 6
- survivor count (dose: 400.0 mg/kg/injection, schedule: Q04DX003 (ip), vehicle: saline with Tween-80): 1 of 6

SMILES: COc1ccccc1CN1CCCN(Cc2ccccc2OC)C1c1ccc(N(CCCl)CCCl)cc1C
- T/C (dose: 150.0 mg/kg/injection, schedule: Q01DX009 (ip), vehicle: Klucel (hydroxypropylcellulose) (HPC)): 136 % of control

SMILES: COc1cc2ccc3c(c2cc1OC)C=[N+](C)CC3
- T/C [2]: 133 % of control
- survivor count [3]: 4 of 6

SMILES: COC1(c2ccc([N+](=O)[O-])o2)OC1(C)C (stereo unspecified)
- T/C [1]: 130 % of control
- T/C [2]: 138 % of control [5 of 6 alive]

SMILES: Cc1cc2c3ccccc3ccc2[n+]2ccccc12
- T/C (dose: 6.1 mg/kg/injection, schedule: Q01DX009 (ip), vehicle: saline): 125 % of control
- survivor count (dose: 18.75 mg/kg/injection, schedule: Q01DX009 (ip), vehicle: saline): 0 of 6
- survivor count (dose: 28.12 mg/kg/injection, schedule: Q01DX009 (ip), vehicle: saline): 0 of 6
- survivor count (dose: 37.5 mg/kg/injection, schedule: Q01DX009 (ip), vehicle: saline): 0 of 6
- survivor count (dose: 75.0 mg/kg/injection, schedule: Q04DX003 (ip), vehicle: alcohol): 1 of 6
- survivor count (dose: 150.0 mg/kg/injection, schedule: Q04DX003 (ip), vehicle: alcohol): 0 of 6

SMILES: C1CCCCCC(NC2=NCCO2)CCCCC1
- survivor count (dose: 12.5 mg/kg/injection, schedule: Q04DX003 (ip), vehicle: saline with Tween-80): 6 of 6

SMILES: CCCCCCCCCCCCCCCC[N+](C)(C)c1nc(Cl)nc(Cl)n1
- survivor count (dose: 60.0 mg/kg/injection, schedule: Q01DX009 (ip), vehicle: saline): 6 of 6

SMILES: NCCS(=O)(=O)O
- T/C [6]: 127 % of control
- survivor count [6]: 6 of 6
- T/C (dose: 100.0 mg/kg/injection, schedule: Q01DX009 (ip), vehicle: saline): 131 % of control
- survivor count [4]: 6 of 6

SMILES: NCCc1ccc(O)c(O)c1
- T/C (dose: 75.0 mg/kg/injection, schedule: Q01DX009 (ip), vehicle: saline): 138 % of control [5 of 6 alive]
- T/C (dose: 150.0 mg/kg/injection, schedule: Q01DX009 (ip), vehicle: saline): 133 % of control [5 of 6 alive]
- T/C (dose: 300.0 mg/kg/injection, schedule: Q01DX009 (ip), vehicle: saline): 139 % of control

SMILES: COc1ccc(C(O)(CS(C)=O)c2cccs2)cc1 (stereo unspecified)
- T/C [1]: 146 % of control

SMILES: CSc1ncc(C)c[n+]1-c1ccccc1
- survivor count (dose: 200.0 mg/kg/injection, schedule: Q04DX002 (ip), vehicle: saline with Tween-80): 3 of 6
